For at least one entry, the source does not settle the construct or the ends of the probe. At least one verdict was read from the data and is not stated in words by the source.
System: wild-type core RNA polymerase (WTE) + sigma70
Assay: EMSA
Details: no P7, negative control RNAp; Transcription/KMnO4 reactions: 100 nM Esigma70, 20 nM promoter, P7:Esigma70 4:1 pre-incubated; KMnO4 1 mM, 37 C, 30 s; EMSA on 4.5% native PAGE (Fig. 4D at 4 C); recombinant protein; label: 32P in Fig. 4C,D, unlabelled in Fig. 4A,B

GTTAGCTCACTCATTAGGCACCCCAGGCTTTACACTTTATGCTTCCGGCTCGTATAATGTGTGGAATTGTGAGCGGATAACAATTTCACACAGGAAACAG (double strand) [lacUV5 promoter [-64 to +36]]
binding result: binds

From PMC3985653, “A bacteriophage transcription regulator inhibits bacterial transcription initiation by σ-factor displacement”
